Patent US5633263A, “Linear somatostatin analogs” (The Administrators of the Tulane Educational Fund, priority 1994, dated 1997)
Not every detail of the peptide structures is certain; ends, links or a residue may be inferred. Where a SMILES comes first, the peptide text is derived from it. [ ]: non-standard residue; d: D form. d2Nal = N[C@H](Cc1ccc2ccccc2c1)C(=O)O

Assays:
rat pituitary cells = experiment: Growth hormone secretion in cultured rat pituitary cell dispersion, stimulated by 1 nM GRF(1-29)NH2; format: cell-based; conditions: 1 nM GRF(1-29)NH2, 3 h, FIGS. 1 and 2
[1] = target: [125I-Tyr11]SRIF-14 binding to crude membrane preparations from rat pancreas; experiment: Inhibition of [125I]SRIF-14 binding, pancreas membranes; conditions: for IC50: rat pancreas membranes, [125I]SRIF-14 approximately 0.05 nM, read-out: IC50 (nM) Pancreas, inhibition of I125 SRIF-14 binding; for inhibiting the binding of I125 SRIF-14 (in words): summary in words of Table 1 (pancreas, SCLC, brain)
Method: (§1) Crude membrane preparations were obtained from rat pancreas, cerebral cortex, or human small cell lung carcinoma (NCI-H69) cells by homogenizing (Polytron, setting 6, 15 sec) the tissues or cells in ice-cold 50 mM Tris-HCl and centrifuging twice at 39,000× g (10 min), with an intermediate resuspension in fresh buffer. The final pellets were resuspended in 10 mM Tris-HCl for assay. Aliquots of the membrane preparation were incubated for 25 min at 30° C. with labeled somatotropin-release-inhibiting factor, [^125 I-Tyr^11 ] SRIF-14 (2000 Ci/mmol, Amersham Corp.), in 50 mM HEPES (pH 7.4) containing bovine serum albumin (10 mg/ml; fraction V, Sigma Chem.), MgCl2 (5mM), Trasylol (200 KIU/ml), bacitracin (0.02 mg/ml), and phenylmethylsulphonyl fluoride (0.02 mg/ml). The final assay volume was 0.3 ml. The incubations were terminated by rapid filtration through Whatman GF/C filters (pre-soaked in 0.3% polyethylenimine) under reduced pressure. Each tube and filter were then washed three times with 5 ml aliquots of ice-cold buffer. Specific binding was defined as the total [^125 I]SRIF-14 bound minus that bound in the presence of 200 nM unlabelled SRIF-14.
(§2) Table 1 gives results of inhibition of [^125 I]SRIF-14 binding by linear peptides of the invention. The concentration of [^125 I]SRIF-14 was approximately 0.05 nM. (Values in parenthesis indicate the number of independent determinations.) The IC50 (concentration of analog resulting is 50% competitive inhibition) in nM values are indicated for pancreas, small cell lung carcinoma (SCLC), and brain. […] Peptide DC-23-85, which is not within the invention, inhibits the binding of I^125 SRIF-14 only poorly.

[2] = target: [125I-Tyr11]SRIF-14 binding to crude membrane preparations from rat cerebral cortex; experiment: Inhibition of [125I]SRIF-14 binding, brain membranes; conditions: [125I]SRIF-14 approximately 0.05 nM, read-out: IC50 (nM) Brain, inhibition of I125 SRIF-14 binding
Method: as §1, §2

[3] = tested on: [125I-Tyr11]SRIF-14 binding to crude membrane preparations from human small cell lung carcinoma (NCI-H69) cells; experiment: Inhibition of [125I]SRIF-14 binding, SCLC membranes; conditions: [125I]SRIF-14 approximately 0.05 nM, read-out: IC50 (nM) SCLC, inhibition of I125 SRIF-14 binding
Method: as §1, §2

Structure (SMILES)	inhibiting the release of growth hormone (in words) (rat pituitary cells)	IC50 [1]	inhibiting the binding of I125 SRIF-14 (in words) [1]	IC50 [2]	IC50 [3]
CN[C@H](C)C(=O)N[C@@H](Cc1ccc(O)cc1)C(=O)N[C@H](Cc1c[nH]c2ccccc12)C(=O)N[C@@H](CCCCN)C(=O)N[C@H](C(=O)N[C@@H](Cc1ccccc1)C(N)=O)C(C)C [BIM-23050/DC-23-85, n-methyl-D-Ala-Tyr-D-Trp-Lys-Val-Phe-NH2, reference compound]	essentially no activity	264 nM	only poorly	2190 nM	–
CC(C)[C@H](NC(=O)[C@H](CCCCN)NC(=O)[C@@H](Cc1c[nH]c2ccccc12)NC(=O)[C@H](Cc1ccc(O)cc1)NC(=O)[C@H](C)NC(=O)[C@H](N)Cc1ccc2ccccc2c1)C(=O)N[C@@H](C)C(=O)N[C@H](C(N)=O)[C@@H](C)O [BIM-23049/DC-23-76, β-D-Nal-Ala-Tyr-D-Trp-Lys-Val-Ala-Thr-Nh2] (H-[d2Nal]AY[dW]KVAT-NH2)	–	9.2 nM	–	> 10000 nM	2.1 nM
C[C@H](NC(=O)[C@H](N)Cc1ccccc1)C(=O)N[C@@H](Cc1ccccc1)C(=O)N[C@H](Cc1c[nH]c2ccccc12)C(=O)N[C@@H](CCCCN)C(=O)N[C@H](C(=O)N[C@@H](C)C(=O)N[C@H](C(N)=O)[C@@H](C)O)[C@@H](C)O [BIM-23051/DC-23-89, D-Phe-Ala-Phe-D-Trp-Lys-Thr-Ala-Thr-NH2] (H-[dF]AF[dW]KTAT-NH2)	–	34 nM	–	> 10000 nM	15 nM
CC(C)[C@H](NC(=O)[C@H](CCCCN)NC(=O)[C@@H](Cc1c[nH]c2ccccc12)NC(=O)[C@H](Cc1ccc(O)cc1)NC(=O)[C@H](C)NC(=O)[C@H](N)Cc1ccccc1)C(=O)N[C@@H](C)C(=O)N[C@H](Cc1ccc2ccccc2c1)C(N)=O [BIM-23053/DC-25-4, D-Phe-Ala-Tyr-D-Trp-Lys-Val-Ala-β-D-Nal-NH2] (H-[dF]AY[dW]KVA[d2Nal]-NH2)	–	2.8 nM	particularly effective	109 nM	2.2 nM
